One assay deals with IL2 (R&D, 202-IL) (UniProt P60568). Description: ELISA. Background: In an ELISA, binding on a coated surface is turned into a signal by an enzyme label.
In assay [1] the target is biotinylated recombinant PD1 (PD1-HisAvi, Acro Biosystems PD1-H82E4) (UniProt Q15116). Description: ELISA.
A further assay has as its target PD-1 (human, UniProt Q15116 25-167, limits assumed). Description: HTRF. (In TR-FRET formats the signal depends on donor and acceptor labels being close together.)

The chains behind the UniProt entries cited, without tags or fusion partners. Residues count along the entry.
UniProt P60568, residues 21-153: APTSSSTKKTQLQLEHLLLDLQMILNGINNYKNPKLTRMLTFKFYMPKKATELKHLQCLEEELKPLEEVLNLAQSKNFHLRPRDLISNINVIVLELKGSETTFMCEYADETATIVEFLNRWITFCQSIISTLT
UniProt Q15116, residues 25-167: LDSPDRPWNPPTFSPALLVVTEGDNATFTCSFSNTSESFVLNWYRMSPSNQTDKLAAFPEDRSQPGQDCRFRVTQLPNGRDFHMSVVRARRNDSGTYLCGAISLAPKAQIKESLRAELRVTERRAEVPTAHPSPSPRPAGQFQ

These are yes or no findings as the source states them, for the method shown. Some binding calls cover weakened binding; strength is not graded here.

B1: AB002864_2A11v6 scFv (AF005116) (scFv)
scFv: MSTSTQVQLVQSGAEVKKPGASVKVSCKASGHTFTRYYMHWVRQAPGQGLEWMGVINPSGGYATYAQKFQGRVTMTRDTSTSTVYMELSSLRSEDTAVYYCASGWDVWGQGTLVTVSSGGGGSGGGGSGGGGSGGGGSDIQMTQSPSSLSASVGDRVTITCRASQSINSWLAWYQQKPGKAPKLLIYATSTLESGVPSRFSGSGSGTDFTLTISSLQPEDFATYYCQQSYSSPVTFGQGTKVEIKEQKLISEEDLGSGLNDIFEAQKIEWHEGKPIPNPLLGLDST
Regarding B1, the binding entry was “binds” in the assay with IL2 (R&D, 202-IL) and “binds” in assay [1].

B2: AB002410_2A11v2 scFv (AF003815) (scFv)
scFv: MSTSTQVQLVQSGAEVKKPGASVKVSCKASGHTFTRYYMHWVRQAPGQGLEWMGIINPSGGYATYAQKFQGRVTMTRDTSTSTVYMELSSLRSEDTAVYYCASGWFVWGQGTLVTVSSASGGGGSGGGGSGGGGSHASDIQMTQSPSSLSASVGDRVTITCRASQSINSWLAWYQQKPGKAPKLLIYDTSTLESGVPSRFSGSGSGTDFTLTISSLQPEDFATYYCQQSYSFPVTFGQGTKVEIKAAAGSGSEQKLISEEDLGKPIPNPLLGLDST
With B2, the binding result in the assay with IL2 (R&D, 202-IL) is listed as “binds”; in assay [1], “binds”.

B3: PD1-IL2-R02-C02 (SEQ ID NO: 31) (scFv)
scFv: QVQLVQSGAEVKKPGVSVKVSCKASGYTFPRSYIHWVRQAPGQGLEWMGWINPHSGDTYYAQNFQGRVTMTRDTSTSTVYMELSSLRSEDTAVYYCARDTGLGYYYGSGDFDYWGQGTLVTVSSASGGGGSGGGGSGGGGSHASDIQMTQSPSSLSASVGDRVTITCRASQSISRYLNWYQQKPGKAPKLLIYTASSLQSGVPSRFSGSGSGTDFTLTISSLQPEDFATYYCQQANRFPLTFGPGTKVDIK
notes: V5-tagged in the assay
Consider B3, for which the binding entry in the assay with PD-1 is “binds”.

B4: PD1-IL2-R07-A09 (SEQ ID NO: 34) (scFv)
scFv: QVQLVQSGAEVKKPGASVKVSCKASGYTFTSYYMHWVRQAPGQGLEWMGIINPSDGSTTYAQSFQGRVTMTRDTSTSTVYMELSSLRSEDTAVYYCASGWDVWGQGTLVTVSSASGGGGSGGGGSGGGGSHASDIVMTQSPDSLAVSLGERATINCKSSQSVFSSANNKNYLAWYQQKPGQPPKLLIYWASTRESGVPDRFSGSGSGTDFTLTISSLQAEDVAVYYCQQYFGTPVTFGGGTKVEIK
notes: V5-tagged in the assay
As for B4, the binding entry with PD-1 was “binds”.

B5: PD1-IL2-R02-C03 (SEQ ID NO: 32) (scFv)
scFv: QVQLVQSGAEVKKPGASVKVSCKASGYTFPRYHIHWVRQAPGQGLEWMGMINPSGGTTTYAQKFQGRVTMTRDTSTSTVYMELSSLRSEDTAVYYCARDTGLGYYYGSGDFDYWGQGTLVTVSSASGGGGSGGGGSGGGGSHASDIQMTQSPSSLSASVGDRVTITCRASQSISSWLAWYQQKPGKAPKLLIYAASSLQSGVPSRFSGSGSGTDFTLTISSLQPEDFATYYCQQSHSFPLTFGGGTKVEIK
notes: V5-tagged in the assay
In the case of B5, in the assay with PD-1, the binding entry is “binds”.

B6: AB003012_7A04v7 scFv (AF005092) (scFv)
scFv: MSTSTQVQLVQSGAEVKKPGASVKVSCKASGYTFTRYYMHWVRQAPGQGLEWMGIINPRAGYTSYALKFQGRVTMTRDTSTSTVYMELSSLRSEDTAVYYCTSGWDVWGQGTLVTVSSGGGGSGGGGSGGGGSGGGGSDIQMTQSPSSLSASVGDRVTITCRASQSISTWLAWYQQKPGKAPKLLIYAASSLDEGVPSRFSGSGSGTDFTLTISSLQPEDFATYYCQQSYSFPVTFGQGTKVEIKEQKLISEEDLGSGLNDIFEAQKIEWHEGKPIPNPLLGLDST
As for B6, the binding entry with IL2 (R&D, 202-IL) is on record as “binds”; in assay [1] it was “binds”.

B7: AB003005_7A04v5 scFv (AF005085) (scFv)
scFv: MSTSTQVQLVQSGAEVKKPGASVKVSCKASGYTFTRYYMHWVRQAPGQGLEWMGIIQPRAGYTSYALKFQGRVTMTRDTSTSTVYMELSSLRSEDTAVYYCTSGWDVWGQGTLVTVSSGGGGSGGGGSGGGGSGGGGSDIQMTQSPSSLSASVGDRVTITCRASQSISTWLAWYQQKPGKAPKLLIYAASSLDEGVPSRFSGSGSGTDFTLTISSLQPEDFATYYCQQSYSFPVTFGQGTKVEIKEQKLISEEDLGSGLNDIFEAQKIEWHEGKPIPNPLLGLDST
Turning to B7, the binding result is “binds” in the assay with IL2 (R&D, 202-IL) and “binds” in assay [1].

B8: PD1-IL2-R06-E04 (SEQ ID NO: 33) (scFv)
scFv: QVQLVQSGAEVKKPGASVKVSCKASGYTFTRYYIHWVRQAPGQGLEWMGWINAYNGDTNYAQKLQGRVTMTRDTSTSTVYMELSSLRSEDTAVYYCARDSYYYDSFDYWGQGTLVTVSSASGGGGSGGGGSGGGGSHASDIQMTQSPSSLSASVGDRVTITCRASQTITDWLAWYQQKPGKAPKLLIYGASNLQGGVPSRFSGSGSGTDFTLTISSLQPEDFATYYCQQYYSSWTFGQGTKVEIK
notes: V5-tagged in the assay
Turning to B8, in the assay with PD-1, the binding result is recorded as “binds”.

B9: AB002365_7A04v2 scFv (AF003770) (scFv, V domains shown)
VH: QVQLVQSGAEVKKPGASVKVSCKASGYTFTRYYMHWVRQAPGQGLEWMGIINPRAGYTSYALKFQGRVTMTRDTSTSTVYMELSSLRSEDTAVYYCTSGWDVWGQGTLVTVSS
VL: DIQMTQSPSSLSASVGDRVTITCRASQSISTWLAWYQQKPGKAPKLLIYAASSLDSGVPSRFSGSGSGTDFTLTISSLQPEDFATYYCQQSYSFPVTFGQGTKVEIK
As to B9, the binding entry with IL2 (R&D, 202-IL) is reported as “binds”; in assay [1], “binds”.

B10: AB002413_2A11v3 scFv (AF003818) (scFv, V domains shown)
VH: QVQLVQSGAEVKKPGASVKVSCKASGHTFTRYYMHWVRQAPGQGLEWMGIINPSGGYATYAQKFQGRVTMTRDTSTSTVYMELSSLRSEDTAVYYCASGLFIWGQGTLVTVSS
VL: DIQMTQSPSSLSASVGDRVTITCRASQSINSWLAWYQQKPGKAPKLLIYATSTLESGVPSRFSGSGSGTDFTLTISSLQPEDFATYYCQQYYRFPVTFGQGTKVEIK
As to B10, the binding result with IL2 (R&D, 202-IL) is listed as “binds”; in assay [1], “binds”.

B11: AB002417_2A11v4 scFv (AF003822) (scFv, V domains shown)
VH: QVQLVQSGAEVKKPGASVKVSCKASGHTFTRYYMHWVRQAPGQGLEWMGIINPSGGYATYAQKFQGRVTMTRDTSTSTVYMELSSLRSEDTAVYYCASGLFIWGQGTLVTVSS
VL: DIQMTQSPSSLSASVGDRVTITCRASQSINSWLAWYQQKPGKAPKLLIYATSTLESGVPSRFSGSGSGTDFTLTISSLQPEDFATYYCQQYYSFPVTFGQGTKVEIK
With B11, the binding entry is reported as “binds” with IL2 (R&D, 202-IL) and “binds” in assay [1].

B12: AB002427_2A11v5 scFv (AF003832) (scFv, V domains shown)
VH: QVQLVQSGAEVKKPGASVKVSCKASGHTFTRYYMHWVRQAPGQGLEWMGIINPSGGYATYAQKFQGRVTMTRDTSTSTVYMELSSLRSEDTAVYYCASGLFIWGQGTLVTVSS
VL: DIQMTQSPSSLSASVGDRVTITCRASQSINSWLAWYQQKPGKAPKLLIYATSTLESGVPSRFSGSGSGTDFTLTISSLQPEDFATYYCQQSYRFPVTFGQGTKVEIK
For B12, the binding entry is listed as “binds” in the assay with IL2 (R&D, 202-IL) and “binds” in assay [1].

B13: AB002360_7A04v1 scFv (AF003765) (scFv)
scFv: MSTSTQVQLVQSGAEVKKPGASVKVSCKASGYTFTDYYMHWVRQAPGQGLEWMGIINPRAGYTSYALKFQGRVTMTRDTSTSTVYMELSSLRSEDTAVYYCTSGWDVWGQGTLVTVSSASGGGGSGGGGSGGGGSHASDIQMTQSPSSLSASVGDRVTITCRASQSISTWLAWYQQKPGKAPKLLIYAASSLDSGVPSRFSGSGSGTDFTLTISSLQPEDFATYYCQQSYSFPVTFGQGTKVEIKAAAGSGSEQKLISEEDLGKPIPNPLLGLDST
B13: the binding entry in the assay with IL2 (R&D, 202-IL) is “binds”; in assay [1], “binds”.

B14: AB002370_7A04v3 scFv (AF003775) (scFv)
scFv: MSTSTQVQLVQSGAEVKKPGASVKVSCKASGYTFTTYYMHWVRQAPGQGLEWMGIINPRAGYTSYALKFQGRVTMTRDTSTSTVYMELSSLRSEDTAVYYCTSGWDVWGQGTLVTVSSASGGGGSGGGGSGGGGSHASDIQMTQSPSSLSASVGDRVTITCRASQSISTWLAWYQQKPGKAPKLLIYAASSLDSGVPSRFSGSGSGTDFTLTISSLQPEDFATYYCQQSYSFPVTFGQGTKVEIKAAAGSGSEQKLISEEDLGKPIPNPLLGLDST
Take B14: the binding entry with IL2 (R&D, 202-IL) is reported as “binds”; in assay [1], “binds”.

B15: AB002381_7A04v4 scFv (AF003786) (scFv)
scFv: MSTSTQVQLVQSGAEVKKPGASVKVSCKASGDTFTDYYMHWVRQAPGQGLEWMGIINPRAGYTSYALKFQGRVTMTRDTSTSTVYMELSSLRSEDTAVYYCTSGWDVWGQGTLVTVSSASGGGGSGGGGSGGGGSHASDIQMTQSPSSLSASVGDRVTITCRASQSISTWLAWYQQKPGKAPKLLIYAASSLDSGVPSRFSGSGSGTDFTLTISSLQPEDFATYYCQQSYSFPVTFGQGTKVEIKAAAGSGSEQKLISEEDLGKPIPNPLLGLDST
Turning to B15, the binding entry with IL2 (R&D, 202-IL) was “binds”; in assay [1], “binds”.
